From PubChem BioAssay AID1347075 (National Center for Advancing Translational Sciences (NCATS), 2019)
Out of some 400,000 compounds screened, about 5,500 (1.4%) were called active. This list was built around the results that the source calls inconclusive (neither active nor inactive); the mix of calls is not that of the screen. Calls come from the whole dose curve; as a rule, active = well fitted cell-killing curve with a large enough effect; inconclusive = small, poorly fitted or top-dose-only effect, or effect the other way; inactive = flat fitted curve, though single readings scatter. Where the call is inconclusive, the potency comes from a doubtful curve fit.

Experiment: qHTS assay for MDR1-selective chemotherapeutics: Primary screen using the parental adenocarcinoma cell KB-3-1; note: nearly all actives have a fitted effect of over 60% in size
Settings: KB-3-1 viability, CellTiter-Glo ATP luminescence, 72 h; activity change, negative = cytotoxic: at 46.1 µM (top of the series)
Summary of the method: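 Multi-concentration cytotoxicity screen in KB-3-1 cells grown in DMEM lacking phenol red with 10% FBS. After 72 h at 37 °C with compound, ATP-dependent luminescence was recorded.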
% is set by controls: 0 for no effect and ±100 for the full control effect; potency is the fitted concentration of half-maximal effect.

Q: Which Potency does the source give for `COc1cccc(-c2nc(CS(=O)(=O)CC(=O)N3CCN(c4ccccn4)CC3)c(C)o2)c1` here?
A: The Potency was inconclusive: 20.6 µM [cytotoxic, partial curve, poor fit].

Q: Which “activity change, negative = cytotoxic” value does the source give for `COc1ccccc1-n1cc(-c2ccccc2)[nH]c1=S` here?
A: The value was inactive: 0.255%.

Q: With `COc1cc2cnc(-c3ccccc3)c(-c3cc(OC)c(OC)c(OC)c3)c2cc1OC` as the compound, how does the Potency read?
A: The Potency was inconclusive: 29.1 µM [cytotoxic, single point].

Q: For `NS(=O)(=O)c1ccc(NC(=S)N2CCN(Cc3ccc4c(c3)OCO4)CC2)cc1`, which “activity change, negative = cytotoxic” value is on record?
A: Its value is inactive: -17.4%.

Q: With `O=C(Nc1ccccc1Cl)ON=C1c2ccccc2-c2ccccc21` as the compound, how does the “activity change, negative = cytotoxic” value read?
A: Its value is inactive: 8.61%.

Q: With `Cn1c(=O)n(C)c2cc(S(=O)(=O)NCCc3ccccc3)ccc21` as the compound, how does the Potency read?
A: The Potency was inconclusive: 16.4 µM [cytotoxic, single point].

Q: Which Potency does the source give for `Cc1ccc(NC(=O)CSc2nc(-c3ccco3)cc(C(F)(F)F)n2)c(C)c1` here?
A: Its Potency is inconclusive: 4.61 µM [cytotoxic, full curve, poor fit].

Q: Which “activity change, negative = cytotoxic” value does the source give for `Cc1ccccc1N1C(=O)c2ccccc2C1O` (stereo unspecified) here?
A: The value was inactive: -11.8%.

Q: For `CCNC(=S)NNC(=O)c1csc(C(C)C)c1`, which Potency is on record?
A: The Potency was inconclusive: 29.1 µM [cytotoxic, single point].

Q: Which Potency does the source give for `NC(=O)c1nsc(C(=O)N(c2ccccc2F)C(C(=O)NCc2ccc(F)cc2)c2ccc(O)cc2)c1N` (stereo unspecified) here?
A: The Potency was inconclusive: 29.1 µM [cytotoxic, single point].

Q: For `Cn1c(=O)c2[nH]c(CCCCCc3nc4ccccc4[nH]3)nc2n(C)c1=O`, which Potency is on record?
A: The Potency was inconclusive: 23.1 µM [rising, single point].

Q: For `COc1ccc(/C=N/NC(=O)CNc2ccc(Br)cc2)c(C(=O)O)c1OC`, which Potency is on record?
A: Its Potency is inconclusive: 29.1 µM [rising, single point].

Q: For `CCN(CC)CCNC(=O)C(=O)Nc1c2c(nn1-c1ccc(F)cc1)CSC2`, which “activity change, negative = cytotoxic” value is on record?
A: The value was inactive: 7.87%.

Q: Which “activity change, negative = cytotoxic” value does the source give for `CCN(CC(=O)Nc1c(F)cccc1F)C(=O)c1cccnc1Sc1ccccc1` here?
A: The value was inactive: -2.56%.

Q: For `CC1(C(=O)NCc2ccccc2)Cc2c(-c3cccc(C(N)=O)c3)ccnc2O1` (stereo unspecified), which Potency is on record?
A: The Potency was active: 6.51 µM.

Q: With `CCOc1ccccc1C1NC(=O)NC(C)=C1C(=O)OC1CCCC1C` (stereo unspecified) as the compound, how does the activity change, negative = cytotoxic read?
A: The activity change, negative = cytotoxic was inconclusive: -33.5% [cytotoxic].

Q: Which Potency does the source give for `CC(C)(C)C(=O)NC(=S)NNC(=O)c1sc2ccccc2c1Cl` here?
A: The Potency was active: 9.2 µM.

Q: With `CCc1nnc(NC(=O)c2ccc(S(=O)(=O)N(CC)Cc3ccccc3)cc2)o1` as the compound, how does the Potency read?
A: Its Potency is inconclusive: 20.6 µM [cytotoxic, single point].

Q: With `Cc1ccc(C)c(C(=O)Cn2ncc(Cl)c(Cl)c2=O)c1` as the compound, how does the Potency read?
A: Its Potency is inconclusive: 29.1 µM [cytotoxic, single point].

Q: Which Potency does the source give for `Cc1ccc(S(=O)(=O)N(C)C[C@H]2Oc3cc(C#CC4CCCC4)ccc3S(=O)(=O)N([C@H](C)CO)C[C@H]2C)cc1` here?
A: The Potency was inconclusive: 32.6 µM [cytotoxic, single point].

Q: With `CCN(CC)S(=O)(=O)c1cccc(-c2nnc(SC(C)C(=O)NCCC3=CCCCC3)o2)c1` (stereo unspecified) as the compound, how does the Potency read?
A: The Potency was inconclusive: 23.1 µM [cytotoxic, single point].

Q: With `Fc1ccc(-[n+]2nc(Nc3ccccc3)sc2-c2c(Cl)cccc2Cl)cc1` as the compound, how does the Potency read?
A: Its Potency is inconclusive: 29.1 µM [cytotoxic, single point].

Q: With `O=c1[nH]c2ccccc2c(O)c1-[n+]1ccccc1` as the compound, how does the “activity change, negative = cytotoxic” value read?
A: The value was inactive: -9.57%.

Q: Which Potency does the source give for `COc1ccc(NC(=O)c2ccc(F)cc2)cc1S(=O)(=O)Nc1cc(C)ccc1Br` here?
A: The Potency was inconclusive: 29.1 µM [cytotoxic, single point].

Q: For `CC(=Nc1ccc(C)cc1)c1sc2ccccc2c1O`, which Potency is on record?
A: The Potency was inconclusive: 29.1 µM [cytotoxic, single point].

Q: For `COc1ccc(C(=O)C[n+]2ccc3c(c2)nc(-c2ccccc2)n3C)cc1`, which Potency is on record?
A: The Potency was inconclusive: 18.4 µM [cytotoxic, single point].

Q: Which Potency does the source give for `Cc1ccc(C)c(N2CCN(C(=O)Nc3cn(CC(C)C)c(=O)c4ccccc34)CC2)c1` here?
A: The Potency was inconclusive: 25.9 µM [cytotoxic, single point].

Q: For `CCN(CC)CCn1c(NCc2ccc(OC)cc2)nc2ccccc21`, which Potency is on record?
A: The Potency was inconclusive: 29.1 µM [cytotoxic, single point].

Q: Which “activity change, negative = cytotoxic” value does the source give for `COc1ccc(C(=O)NCc2nnc(SCC(=O)Nc3cc(Cl)ccc3OC)o2)cc1` here?
A: The value was inactive: 1.73%.

Q: With `Cc1nn(S(=O)(=O)c2cccs2)c(C)c1Sc1ccc([N+](=O)[O-])cc1` as the compound, how does the Potency read?
A: The Potency was inconclusive: 13 µM [cytotoxic, partial curve].

Q: Which Potency does the source give for `COc1ccc(Cn2c(C(=O)O)c(CNCC(C)c3ccccc3)c3ccc(OC)cc32)cc1` (stereo unspecified) here?
A: The Potency was inconclusive: 14.6 µM [cytotoxic, single point].

Q: Which Potency does the source give for `CCN(CC)C(=S)SCC(=O)Nc1nc(-c2ccccc2)c(-c2ccccc2)o1` here?
A: Its Potency is inconclusive: 23.1 µM [cytotoxic, single point].

Q: With `CN(C)C(=O)c1cccc(-c2cc(NC=O)c3ncc(-c4ccc(F)cc4)n3c2)c1` as the compound, how does the Potency read?
A: The Potency was inconclusive: 16.4 µM [cytotoxic, single point].

Q: With `COc1cc(N(C(=O)Cc2cccs2)C(C(=O)NC2CCCCC2)c2ccc(C)cc2)ccc1-n1cnnn1` (stereo unspecified) as the compound, how does the Potency read?
A: The Potency was inconclusive: 23.1 µM [cytotoxic, single point].

Q: For `CC(=O)Cn1nnc2sc3c(c2c1=O)CCC(C(C)(C)C)C3` (stereo unspecified), which Potency is on record?
A: Its Potency is inconclusive: 29.1 µM [cytotoxic, single point].

Q: For `Cc1cc(C)cc(N2CC(O)=C(c3nc4ccccc4c(=O)[nH]3)C2=N)c1`, which Potency is on record?
A: Its Potency is active: 14.6 µM.
